Record: PubChem BioAssay AID1117269 (University of Michigan, 2014)
In all, the deposit lists 714 reagents; this is an unselected part. 49 of all reagents (6.9%) were called active. 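Active means a hit in at least one line; per-line hit columns show which; some siRNA pools appear more than once.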 Not stated in the record: the amount of reagent.

Aim: 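Kinases whose silencing alters a TGF-beta responsive luciferase reporter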 (primary screen)
System: human A549 lung cancer and 1833 breast cancer (MDA-MB-231-derived) cell lines carrying a stable BTR luciferase reporter
Reagents: siRNA pool against human genes
Duration: 72 h after transfection, then 1 h TGF-beta before the read
Challenge: TGF-beta 10 ng/mL added one hour before luciferin and read-out
Read-out: 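BTR reporter bioluminescence as fold change relative to non-targeting siRNA, averaging triplicates per line; knockdown for 72 h, then TGF-beta at 10 ng/mL 1 h prior to reading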
Scale: fold over scrambled siRNA, A549 and fold over scrambled siRNA, 1833: higher = more reporter light, weaker TGF-beta receptor signalling
Call rule: 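Hit in either line counts as active; per-line hits lie above an upper limit from quartiles of averaged log fold values, in plate and screen-wide analyses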
Calls: active = hit in at least one line; inactive = hit in neither line

| gene | fold over scrambled siRNA, A549 | fold over scrambled siRNA, 1833 | hit in A549 | hit in 1833 | outcome |
| --- | --- | --- | --- | --- | --- |
| DYRK1A | 2.72 | 2.48 | not a hit in A549 | not a hit in 1833 | inactive |
| NME7 (NME/NM23 family member 7) | 2.19 | 4.42 | not a hit in A549 | not a hit in 1833 | inactive |
| ACVR1 (activin A receptor type 1) | 1.03 | 2.47 | not a hit in A549 | not a hit in 1833 | inactive |
| IRAK2 (interleukin 1 receptor associated kinase 2) | 0.771 | 2.33 | not a hit in A549 | not a hit in 1833 | inactive |
| KALRN (kalirin RhoGEF kinase) | 1.42 | 1.24 | not a hit in A549 | not a hit in 1833 | inactive |
| TSSK2 (testis specific serine kinase 2) | 0.747 | 1.21 | not a hit in A549 | not a hit in 1833 | inactive |
| FN3K (fructosamine 3 kinase) | 2.67 | 3.9 | not a hit in A549 | not a hit in 1833 | inactive |
| EFNA3 (ephrin A3) | 1.95 | 8.57 | not a hit in A549 | not a hit in 1833 | inactive |
| EIF2AK4 (eukaryotic translation initiation factor 2 alpha kinase 4) | 4.09 | 4.67 | not a hit in A549 | not a hit in 1833 | inactive |
| PHKB (phosphorylase kinase regulatory subunit beta) | 2.42 | 2.6 | not a hit in A549 | not a hit in 1833 | inactive |
| BLK (BLK proto-oncogene, Src family tyrosine kinase) | 2.18 | 17.3 | not a hit in A549 | hit in 1833 | – |
| GRK5 (G protein-coupled receptor kinase 5) | 3 | 6.52 | not a hit in A549 | not a hit in 1833 | inactive |
| MYLK (myosin light chain kinase) | 1 | 8.05 | not a hit in A549 | not a hit in 1833 | inactive |
| CHEK1 (checkpoint kinase 1) | 0.897 | 2 | not a hit in A549 | not a hit in 1833 | inactive |
| GK (glycerol kinase) | 1.49 | 5.73 | not a hit in A549 | not a hit in 1833 | inactive |
| DLG4 (discs large MAGUK scaffold protein 4) | 1.74 | 2.86 | not a hit in A549 | not a hit in 1833 | inactive |
| ATP23 | 1.19 | 5.43 | not a hit in A549 | not a hit in 1833 | inactive |
| PIK3C2G | 2.68 | 1.67 | not a hit in A549 | not a hit in 1833 | inactive |
| GSK3B (glycogen synthase kinase 3 beta) | 3.29 | 4.33 | not a hit in A549 | not a hit in 1833 | inactive |
| STK38 (serine/threonine kinase 38) | 2.48 | 1.75 | not a hit in A549 | not a hit in 1833 | inactive |
| TNNI3K (TNNI3 interacting kinase) | 1.64 | 2 | not a hit in A549 | not a hit in 1833 | inactive |
| PRKX (protein kinase cAMP-dependent X-linked catalytic subunit) | 4.86 | 5.99 | not a hit in A549 | not a hit in 1833 | inactive |
| HUNK (hormonally up-regulated Neu-associated kinase) | 0.824 | 1.26 | not a hit in A549 | not a hit in 1833 | inactive |

Ordered by “fold over scrambled siRNA, 1833” (lowest first): 2 of the entries above
| gene | fold over scrambled siRNA, A549 | fold over scrambled siRNA, 1833 | hit in A549 | hit in 1833 | outcome |
| --- | --- | --- | --- | --- | --- |
| TSSK2 (testis specific serine kinase 2) | 0.747 | 1.21 | not a hit in A549 | not a hit in 1833 | inactive |
| KALRN (kalirin RhoGEF kinase) | 1.42 | 1.24 | not a hit in A549 | not a hit in 1833 | inactive |
